# Reference: article PMC10471174
# Sequences of proteins named here, by UniProt entry; tags and fusion partners are left off.
# UniProt Q03164: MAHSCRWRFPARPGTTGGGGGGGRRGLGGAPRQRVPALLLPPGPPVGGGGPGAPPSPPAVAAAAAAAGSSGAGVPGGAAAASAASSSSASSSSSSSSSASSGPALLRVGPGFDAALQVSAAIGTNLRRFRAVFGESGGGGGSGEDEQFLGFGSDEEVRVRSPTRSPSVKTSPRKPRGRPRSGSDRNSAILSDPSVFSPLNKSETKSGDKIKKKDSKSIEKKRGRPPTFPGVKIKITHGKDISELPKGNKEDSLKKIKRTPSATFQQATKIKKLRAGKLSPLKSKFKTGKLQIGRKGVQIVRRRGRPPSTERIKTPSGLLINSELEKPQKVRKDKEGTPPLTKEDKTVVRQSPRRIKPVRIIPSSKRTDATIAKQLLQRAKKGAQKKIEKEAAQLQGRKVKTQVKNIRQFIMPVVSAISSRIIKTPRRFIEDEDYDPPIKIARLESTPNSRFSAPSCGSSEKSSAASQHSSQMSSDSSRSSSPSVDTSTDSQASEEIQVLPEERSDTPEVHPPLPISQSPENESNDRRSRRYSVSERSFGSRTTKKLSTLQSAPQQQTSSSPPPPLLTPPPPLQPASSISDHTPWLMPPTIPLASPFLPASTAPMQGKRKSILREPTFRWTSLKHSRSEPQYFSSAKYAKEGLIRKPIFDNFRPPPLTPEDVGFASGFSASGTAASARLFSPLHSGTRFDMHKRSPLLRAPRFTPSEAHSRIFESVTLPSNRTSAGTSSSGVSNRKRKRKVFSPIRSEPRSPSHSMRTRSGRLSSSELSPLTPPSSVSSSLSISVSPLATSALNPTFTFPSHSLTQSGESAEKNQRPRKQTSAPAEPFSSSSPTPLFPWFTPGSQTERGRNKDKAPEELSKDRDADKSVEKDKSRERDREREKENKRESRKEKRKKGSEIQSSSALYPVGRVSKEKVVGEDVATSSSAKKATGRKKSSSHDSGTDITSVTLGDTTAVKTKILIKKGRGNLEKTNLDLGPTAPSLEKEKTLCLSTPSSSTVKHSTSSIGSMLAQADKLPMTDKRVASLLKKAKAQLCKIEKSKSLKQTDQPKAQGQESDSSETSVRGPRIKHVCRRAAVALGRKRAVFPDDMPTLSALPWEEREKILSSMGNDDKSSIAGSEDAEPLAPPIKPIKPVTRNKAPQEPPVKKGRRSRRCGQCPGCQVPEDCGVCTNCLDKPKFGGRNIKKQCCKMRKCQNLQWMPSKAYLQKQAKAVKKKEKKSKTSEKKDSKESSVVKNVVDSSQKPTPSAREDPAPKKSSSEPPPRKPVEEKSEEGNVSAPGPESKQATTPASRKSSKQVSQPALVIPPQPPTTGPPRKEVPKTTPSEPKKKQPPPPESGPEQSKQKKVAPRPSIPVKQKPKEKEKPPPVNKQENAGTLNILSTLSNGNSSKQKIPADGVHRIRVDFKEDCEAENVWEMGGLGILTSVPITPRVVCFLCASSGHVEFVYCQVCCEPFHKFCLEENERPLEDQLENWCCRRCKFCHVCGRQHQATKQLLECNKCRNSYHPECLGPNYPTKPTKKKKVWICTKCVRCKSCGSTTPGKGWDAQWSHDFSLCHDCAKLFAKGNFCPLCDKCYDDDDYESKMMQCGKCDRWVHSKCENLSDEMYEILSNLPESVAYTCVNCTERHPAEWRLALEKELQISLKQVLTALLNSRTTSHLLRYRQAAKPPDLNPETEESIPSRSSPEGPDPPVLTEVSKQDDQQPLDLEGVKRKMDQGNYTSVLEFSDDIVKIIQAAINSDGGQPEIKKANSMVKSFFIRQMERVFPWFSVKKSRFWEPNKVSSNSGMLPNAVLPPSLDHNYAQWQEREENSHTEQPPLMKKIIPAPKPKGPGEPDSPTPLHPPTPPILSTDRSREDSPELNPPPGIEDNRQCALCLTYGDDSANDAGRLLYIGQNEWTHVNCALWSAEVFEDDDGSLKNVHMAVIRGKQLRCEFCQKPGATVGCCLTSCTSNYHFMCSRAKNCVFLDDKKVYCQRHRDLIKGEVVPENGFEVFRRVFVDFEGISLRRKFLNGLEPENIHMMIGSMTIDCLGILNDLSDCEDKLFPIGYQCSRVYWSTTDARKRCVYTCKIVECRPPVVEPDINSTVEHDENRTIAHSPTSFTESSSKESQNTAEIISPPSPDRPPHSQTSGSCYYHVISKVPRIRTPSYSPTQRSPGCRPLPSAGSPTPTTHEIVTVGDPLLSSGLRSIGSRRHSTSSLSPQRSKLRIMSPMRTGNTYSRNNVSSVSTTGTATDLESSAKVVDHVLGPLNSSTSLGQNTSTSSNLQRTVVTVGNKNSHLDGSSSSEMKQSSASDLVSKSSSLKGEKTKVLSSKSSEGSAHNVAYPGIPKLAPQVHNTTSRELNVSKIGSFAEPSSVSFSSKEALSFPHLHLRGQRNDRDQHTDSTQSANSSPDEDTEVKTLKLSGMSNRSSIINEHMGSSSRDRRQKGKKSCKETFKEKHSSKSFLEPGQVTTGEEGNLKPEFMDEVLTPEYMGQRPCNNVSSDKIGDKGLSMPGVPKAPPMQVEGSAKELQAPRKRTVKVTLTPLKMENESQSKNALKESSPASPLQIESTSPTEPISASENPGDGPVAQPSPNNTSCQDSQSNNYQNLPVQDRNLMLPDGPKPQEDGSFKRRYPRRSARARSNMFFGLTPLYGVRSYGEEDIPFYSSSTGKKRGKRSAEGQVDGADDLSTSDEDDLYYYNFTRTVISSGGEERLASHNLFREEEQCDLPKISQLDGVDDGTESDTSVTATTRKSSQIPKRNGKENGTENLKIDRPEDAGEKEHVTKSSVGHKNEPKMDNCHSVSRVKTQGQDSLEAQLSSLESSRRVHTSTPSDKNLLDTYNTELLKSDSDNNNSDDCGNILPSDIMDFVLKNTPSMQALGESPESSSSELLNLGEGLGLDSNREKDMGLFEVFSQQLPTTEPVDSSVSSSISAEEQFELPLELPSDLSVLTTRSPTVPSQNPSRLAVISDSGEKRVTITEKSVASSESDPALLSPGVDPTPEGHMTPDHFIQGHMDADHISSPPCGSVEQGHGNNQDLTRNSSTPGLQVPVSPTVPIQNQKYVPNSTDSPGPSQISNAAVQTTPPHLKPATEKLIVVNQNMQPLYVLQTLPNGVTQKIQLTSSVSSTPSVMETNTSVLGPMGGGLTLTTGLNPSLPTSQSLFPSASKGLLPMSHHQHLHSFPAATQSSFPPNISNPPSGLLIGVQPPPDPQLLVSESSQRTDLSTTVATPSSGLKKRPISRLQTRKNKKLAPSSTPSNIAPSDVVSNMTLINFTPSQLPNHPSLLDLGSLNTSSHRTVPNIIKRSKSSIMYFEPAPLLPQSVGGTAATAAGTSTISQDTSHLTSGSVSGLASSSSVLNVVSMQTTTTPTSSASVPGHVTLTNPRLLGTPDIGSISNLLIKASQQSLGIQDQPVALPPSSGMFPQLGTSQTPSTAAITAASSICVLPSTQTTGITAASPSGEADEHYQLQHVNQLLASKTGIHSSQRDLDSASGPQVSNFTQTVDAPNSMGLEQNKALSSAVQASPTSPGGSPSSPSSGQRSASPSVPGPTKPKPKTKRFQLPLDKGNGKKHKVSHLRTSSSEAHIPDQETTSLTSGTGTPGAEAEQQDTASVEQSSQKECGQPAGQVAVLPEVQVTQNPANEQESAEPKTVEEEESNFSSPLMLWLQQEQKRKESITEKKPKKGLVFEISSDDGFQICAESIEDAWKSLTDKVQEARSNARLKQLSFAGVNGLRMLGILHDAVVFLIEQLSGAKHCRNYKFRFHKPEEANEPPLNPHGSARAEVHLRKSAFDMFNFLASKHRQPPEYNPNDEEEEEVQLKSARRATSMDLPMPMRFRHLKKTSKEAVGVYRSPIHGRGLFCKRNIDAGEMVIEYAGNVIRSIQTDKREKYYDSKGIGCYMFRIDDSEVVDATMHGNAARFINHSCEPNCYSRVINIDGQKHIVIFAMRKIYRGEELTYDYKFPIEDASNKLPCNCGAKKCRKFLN
# Results are given in words; binding and its absence hold for the method and conditions named. Binding seen in cells or lysates may run through a third protein. Here binding means that the protein was enriched with, or labelled near, the bait; the list need not be complete. Sequences can lack the tags named with a protein.
# Biological target: T1, GST-SAP30 fusion protein (human) (UniProt O75446)
# T1 sequence: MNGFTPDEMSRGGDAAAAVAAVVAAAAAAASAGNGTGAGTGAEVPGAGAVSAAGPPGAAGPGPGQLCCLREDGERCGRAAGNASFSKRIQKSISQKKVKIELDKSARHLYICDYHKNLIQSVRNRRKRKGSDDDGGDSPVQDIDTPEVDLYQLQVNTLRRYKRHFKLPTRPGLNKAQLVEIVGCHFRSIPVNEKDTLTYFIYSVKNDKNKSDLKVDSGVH
# Assay: affinity purification with mass spectrometry; GST-SAP30 immobilized on glutathione-Sepharose beads, incubated with nuclear lysates of MDA-MB-231 cells for 6 hours at 4°C; 3 independent experiments; only the target purified
substance,measurement,value
"MLL1 (KMT2A), endogenous in MDA-MB-231 and SUM159 cells (from UniProt Q03164 1-3969) (enzyme)",binding,binds
